Laboratory results as given in patent publication US9161990B2 (THERAVANCE BIOPHARMA ANTIBIOTICS IP, LLC, priority 2013, dated 2015).

Experiment: general procedure: peptide synthesis; 4-(4,6-dimethoxy-1,3,5-triazin-2-yl)-4-methylmorpholinium chloride
Settings: conjugation step, trihydrochloride

Question: With “26-[[[3-[[(Z)-[1-(2-Amino-5-chloro-4-thiazolyl)-2-[[(6R,7R)-2-carboxy-8-oxo-3-(pyridiniomethyl)-5-thia-1-azabicyclo[4.2.0]oct-2-en-7-yl]amino]-2-oxoethylidene]amino]oxy]propyl]amino]carbonyl]-26-decarboxyvancomycin Trihydrochloride” as the substance, how does the conjugation yield read?
Answer: 92.2% yield
